From paper PMC4850076 come the findings set out here.

Protein sequences, listed by entry. Tags and fused reporters are not part of them. Residues count along the entry.
UniProt P25156, residues 10-233: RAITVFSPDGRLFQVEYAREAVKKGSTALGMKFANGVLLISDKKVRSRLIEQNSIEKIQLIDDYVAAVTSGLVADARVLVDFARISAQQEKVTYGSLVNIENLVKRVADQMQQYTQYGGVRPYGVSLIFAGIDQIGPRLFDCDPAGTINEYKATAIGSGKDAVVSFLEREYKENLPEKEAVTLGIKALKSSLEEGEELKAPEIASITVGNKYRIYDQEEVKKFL

This assay concerns the target Thermoplasma acidophilum 20S proteasome, subunit other than the β subunit (α subunit) (Thermoplasma acidophilum) (UniProt P25156). The experiment in a line: cryo-EM structure; single particle analysis of purified 20S proteasome, 0.5 mg/ml, plunge-frozen on holey carbon grids; in-focus Volta phase plate and conventional defocus datasets; Relion, D7 symmetry; both purified.

No constants are given. Whether binding was seen depends on the method and setting. Some entries that bind do so weakly or less than the wild type.

B1: Thermoplasma acidophilum 20S proteasome β subunit (protein, UniProt P28061 9-211)
chain: TTTVGITLKDAVIMATERRVTMENFIMHKNGKKLFQIDTYTGMTIAGLVGDAQVLVRYMKAELELYRLQRRVNMPIEAVATLLSNMLNQVKYMPYMVQLLVGGIDTAPHVFSIDAAGGSVEDIYASTGSGSPFVYGVLESQYSEKMTVDEGVDLVIRAISAAKQRDSASGGMIDVAVITRKDGYVQLPTDQIESRIRKLGLIL
On to B1, for which the binding result is given as “binds”.
